# According to paper PMC8376021:
# Amino acid sequences for entries named in this document (tags omitted). A change or cut given only in a name is not applied to a line headed by its entry. Chains listed by the source or under a name are the forms on record and can include a tag or linker. Residues count along the entry.
# UniProt P13202, residues 1-382: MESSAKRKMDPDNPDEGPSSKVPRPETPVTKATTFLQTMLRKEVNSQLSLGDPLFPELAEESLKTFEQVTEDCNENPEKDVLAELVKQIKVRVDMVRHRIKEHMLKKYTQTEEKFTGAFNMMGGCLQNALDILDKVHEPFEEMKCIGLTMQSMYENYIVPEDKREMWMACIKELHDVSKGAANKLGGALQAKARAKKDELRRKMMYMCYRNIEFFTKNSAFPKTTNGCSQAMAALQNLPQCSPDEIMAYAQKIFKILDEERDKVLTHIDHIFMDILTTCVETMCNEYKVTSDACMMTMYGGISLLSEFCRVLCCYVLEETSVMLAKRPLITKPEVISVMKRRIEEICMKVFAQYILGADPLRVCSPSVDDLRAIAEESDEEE
# Myc-tagged human PML, isoform VI (P29590-4, form named): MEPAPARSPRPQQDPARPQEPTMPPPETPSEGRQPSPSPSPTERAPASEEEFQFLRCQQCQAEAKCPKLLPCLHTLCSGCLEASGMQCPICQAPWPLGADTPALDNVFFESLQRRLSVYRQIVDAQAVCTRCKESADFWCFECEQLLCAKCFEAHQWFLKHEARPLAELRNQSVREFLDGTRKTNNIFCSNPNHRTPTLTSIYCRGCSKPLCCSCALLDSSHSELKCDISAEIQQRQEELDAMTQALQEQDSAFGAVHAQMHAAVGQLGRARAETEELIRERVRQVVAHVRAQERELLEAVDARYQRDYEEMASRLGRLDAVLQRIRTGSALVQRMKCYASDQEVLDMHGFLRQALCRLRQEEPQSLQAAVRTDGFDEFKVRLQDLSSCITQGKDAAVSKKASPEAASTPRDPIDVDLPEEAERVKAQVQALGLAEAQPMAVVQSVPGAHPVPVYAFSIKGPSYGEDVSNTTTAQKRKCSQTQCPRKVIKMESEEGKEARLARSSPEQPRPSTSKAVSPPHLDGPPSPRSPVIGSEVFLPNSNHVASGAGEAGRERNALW
# Results are given in words; binding and its absence hold for the method and conditions named. In cells and extracts the contact can be indirect. Some entries that bind do so weakly or less than the wild type.
# Biological target: FLAG-tagged humIE1 1-382 (N-terminally extended humIE1 core) (human cytomegalovirus (HCMV)) (UniProt P13202)
# Test: co-IP; HEK293T co-transfected with FLAG-tagged IE1 variants and Myc-tagged PML variants; lysis in CoIP buffer (50 mM Tris-HCl pH 8.0, 150 mM NaCl, 5 mM EDTA, 0.5% NP-40); IP with anti-FLAG M2 on protein-A-sepharose, 2 h at 4°C; co-precipitated PML detected by Western blot
substance,measurement,value
"Myc-tagged human PML, isoform VI (from UniProt P29590-4 1-560)",binding,binds
